Reference: paper PMC7862700
The entries are a selection whose mix differs from that of the whole data set. At the low end of the ranking the order means little.

Protein sequences, listed by entry. Tags and fused reporters are not part of them. Lines headed by an entry give the natural chain unless they say otherwise; changes in a name come on top.
UniProt Q01892: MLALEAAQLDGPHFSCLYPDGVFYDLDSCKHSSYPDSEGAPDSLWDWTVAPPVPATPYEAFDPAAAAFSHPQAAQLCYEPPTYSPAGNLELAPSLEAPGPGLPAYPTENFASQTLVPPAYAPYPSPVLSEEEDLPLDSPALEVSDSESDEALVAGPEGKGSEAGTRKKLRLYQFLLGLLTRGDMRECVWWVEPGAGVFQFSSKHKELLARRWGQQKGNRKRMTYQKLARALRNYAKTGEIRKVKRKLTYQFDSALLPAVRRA
UniProt Q99607: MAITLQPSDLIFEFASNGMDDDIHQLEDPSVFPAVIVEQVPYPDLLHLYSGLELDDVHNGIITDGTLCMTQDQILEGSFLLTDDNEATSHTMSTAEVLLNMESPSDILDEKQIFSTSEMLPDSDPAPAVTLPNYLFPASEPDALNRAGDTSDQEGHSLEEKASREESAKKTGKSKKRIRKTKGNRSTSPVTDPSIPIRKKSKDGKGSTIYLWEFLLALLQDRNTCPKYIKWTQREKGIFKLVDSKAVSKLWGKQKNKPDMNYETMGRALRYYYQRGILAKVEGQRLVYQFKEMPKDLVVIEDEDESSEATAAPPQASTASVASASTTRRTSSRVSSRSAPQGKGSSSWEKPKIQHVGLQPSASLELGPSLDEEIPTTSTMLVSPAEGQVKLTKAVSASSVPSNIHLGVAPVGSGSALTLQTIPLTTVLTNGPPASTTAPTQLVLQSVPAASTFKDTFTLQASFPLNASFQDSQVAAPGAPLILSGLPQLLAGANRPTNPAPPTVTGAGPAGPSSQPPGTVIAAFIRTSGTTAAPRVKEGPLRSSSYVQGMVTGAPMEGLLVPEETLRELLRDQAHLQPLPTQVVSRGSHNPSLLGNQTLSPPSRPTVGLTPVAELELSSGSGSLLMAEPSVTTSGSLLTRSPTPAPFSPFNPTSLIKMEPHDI

Each sequence was assayed against T1, EHF (UniProt Q9NZC4) (assay: DAPPL (digital affinity profiling via proximity ligation, sequencing)). Conditions: 10 mM Tris-HCl pH 7.5, 50 mM NaCl, 1 mM DTT, 4% glycerol, room temperature, 30 min; GST-TFs on glutathione beads, 16-mer random dsDNA library, 0.1% …; high values mean tight binding; double strand, one strand shown; scale: fold enrichment (6-mer frequency, TF over GST control).
T1 sequence: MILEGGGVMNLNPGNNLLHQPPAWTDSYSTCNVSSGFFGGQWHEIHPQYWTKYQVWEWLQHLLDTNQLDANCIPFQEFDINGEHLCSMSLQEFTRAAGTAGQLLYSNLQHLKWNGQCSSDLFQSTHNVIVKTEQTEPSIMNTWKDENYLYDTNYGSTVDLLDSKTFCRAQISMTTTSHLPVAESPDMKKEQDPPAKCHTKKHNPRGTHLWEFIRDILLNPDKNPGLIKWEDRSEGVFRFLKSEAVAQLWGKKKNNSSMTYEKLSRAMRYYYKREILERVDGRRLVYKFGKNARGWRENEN

| Sequence | binding signal |
| --- | --- |
| TGTTCG | 1.2 |
| AAGTTG | 1.14 |
| CTATCG | 1.07 |
| TACCAT | 1.11 |
| CATCGC | 0.976 |
| TCCATG | 1.17 |
| GCTAGC | 1.19 |
| AAAGCC | 0.935 |
| ACGGTA | 0.979 |
| TGGTGG | 0.948 |
| CTCTAT | 1.09 |
| GTTGTA | 0.997 |
| GTTATA | 0.958 |
| CTATGG | 1.3 |
| CACCAC | 1.11 |
| TGACGG | 0.932 |
| CGATCA | 0.956 |
| CACACG | 1.12 |
| CGTCCA | 1.02 |
| CACTAC | 1.28 |
| GCAAAC | 0.99 |

Each sequence was assayed against SPIB (UniProt Q01892) in the same assay as above. Conditions: 10 mM Tris-HCl pH 7.5, 50 mM NaCl, 1 mM DTT, 4% glycerol, room temperature, 30 min; GST-TFs on glutathione beads, 16-mer random dsDNA library, 0.1% …; high values mean tight binding; double strand, one strand shown; scale: fold enrichment (6-mer frequency, TF over GST control).

| Sequence | binding signal |
| --- | --- |
| AAAGCC | 1 |
| ACGGTA | 0.987 |
| GCAATA | 0.975 |
| GTTGTA | 0.96 |
| GTAGTT | 0.988 |
| TGACGG | 0.994 |
| ATAGCG | 0.916 |
| CACACG | 1.15 |
| GTCCCA | 1.06 |
| GATATG | 0.996 |
| TCAAGC | 0.994 |
| GCAAAC | 0.988 |

The sequences below were run against ELF4 (UniProt Q99607) in the same assay as above. Conditions: 10 mM Tris-HCl pH 7.5, 50 mM NaCl, 1 mM DTT, 4% glycerol, room temperature, 30 min; GST-TFs on glutathione beads, 16-mer random dsDNA library, 0.1% …; high values mean tight binding; double strand, one strand shown; scale: fold enrichment (6-mer frequency, TF over GST control).

| Sequence | binding signal |
| --- | --- |
| ACCTCT | 1.33 |
| TCAAAC | 1.21 |
| GTCCGC | 0.993 |
| TGTTCG | 0.976 |
| AACCGC | 1.12 |
| AAGTTG | 1.14 |
| CTATCG | 1.15 |
| TACCAT | 1.22 |
| CATCGC | 1.13 |
| TTTGTC | 1.18 |
| TCCATG | 1.16 |
| CTACGT | 1.24 |
| GCTAGC | 1.3 |
| AAAGCC | 0.944 |
| ACGGTA | 0.969 |
| TGGTGG | 0.927 |
| TTCGGT | 1.17 |

| Sequence | binding signal |
| --- | --- |
| ACTACA | 1.16 |
| GCAATA | 1.07 |
| CTCTAT | 1.18 |
| AAGCGC | 1.12 |
| GTTGTA | 0.997 |
| GTAGTT | 0.935 |
| GTTATA | 0.977 |
| CTATGG | 1.15 |
| CACCAC | 1.13 |
| TGACGG | 0.907 |
| ATAGCG | 0.964 |
| CGATCA | 1.06 |
| CACACG | 1.18 |
| GTCCCA | 1.13 |
| CGTCCA | 0.974 |
| CACTAC | 1.27 |
| ACCACA | 1.11 |
